Article PMC10468518
No constants are given. Whether binding was seen depends on the method and setting. In cells and extracts the contact can be indirect. Binding calls can cover weak binding; strength is not graded here.

Chains of the proteins cited; added tags and fusions are not shown. Lines headed by an entry give the natural chain unless they say otherwise; changes in a name come on top.
UniProt Q08775: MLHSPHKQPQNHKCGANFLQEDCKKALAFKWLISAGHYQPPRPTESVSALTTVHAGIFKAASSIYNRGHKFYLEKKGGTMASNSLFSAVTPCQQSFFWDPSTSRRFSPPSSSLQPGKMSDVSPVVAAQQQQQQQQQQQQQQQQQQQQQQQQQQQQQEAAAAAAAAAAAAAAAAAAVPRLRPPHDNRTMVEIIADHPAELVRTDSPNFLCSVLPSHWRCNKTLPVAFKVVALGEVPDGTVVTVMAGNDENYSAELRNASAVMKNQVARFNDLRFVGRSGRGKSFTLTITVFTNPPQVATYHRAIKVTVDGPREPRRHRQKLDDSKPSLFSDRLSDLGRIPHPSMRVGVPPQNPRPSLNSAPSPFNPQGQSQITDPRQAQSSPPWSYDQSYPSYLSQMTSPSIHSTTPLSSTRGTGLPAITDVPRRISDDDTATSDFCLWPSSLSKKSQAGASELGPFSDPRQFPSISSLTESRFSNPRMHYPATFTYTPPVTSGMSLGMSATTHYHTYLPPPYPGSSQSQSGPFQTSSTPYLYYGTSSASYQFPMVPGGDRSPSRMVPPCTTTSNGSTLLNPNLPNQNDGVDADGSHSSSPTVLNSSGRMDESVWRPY
UniProt Q9Y2J8: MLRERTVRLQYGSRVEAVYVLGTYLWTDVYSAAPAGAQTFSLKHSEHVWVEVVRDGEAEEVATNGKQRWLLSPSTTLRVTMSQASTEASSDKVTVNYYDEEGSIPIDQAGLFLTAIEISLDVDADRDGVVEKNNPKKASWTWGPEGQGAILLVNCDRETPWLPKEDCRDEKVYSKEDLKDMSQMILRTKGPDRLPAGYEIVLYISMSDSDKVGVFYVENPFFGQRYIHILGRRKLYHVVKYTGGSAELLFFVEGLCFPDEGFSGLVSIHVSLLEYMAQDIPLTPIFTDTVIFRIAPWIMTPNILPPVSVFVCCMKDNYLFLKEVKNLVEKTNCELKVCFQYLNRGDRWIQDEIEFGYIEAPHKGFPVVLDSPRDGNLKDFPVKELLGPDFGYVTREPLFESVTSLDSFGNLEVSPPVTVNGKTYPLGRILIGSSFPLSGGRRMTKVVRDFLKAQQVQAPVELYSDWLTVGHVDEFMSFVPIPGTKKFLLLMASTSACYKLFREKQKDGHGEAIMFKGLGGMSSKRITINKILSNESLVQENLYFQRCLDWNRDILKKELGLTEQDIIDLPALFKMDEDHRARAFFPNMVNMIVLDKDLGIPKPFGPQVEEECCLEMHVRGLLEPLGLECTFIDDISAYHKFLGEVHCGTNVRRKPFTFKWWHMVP

Molecular target: 3xHA-Runx2 (UniProt Q08775)
Assay: co-IP; 293T cells co-transfected with 3xHA-Runx2 with or without Flag-PADI2, cultured 3 days; lysate immunoprecipitated with anti-HA antibody and protein G-conjugated magnetic beads; immunoblot

Flag-PADI2 (from UniProt Q9Y2J8 1-665) (enzyme)
binding: binds
